Measurements as given in the supplement of paper PMC5949888.
Most values lie at the floor of the assay. Slopes are relative: functional sequences can read slightly below zero.

system: Saccharomyces cerevisiae PS128 hsf1 delta, HSF1(1-493) fusion; test: growth estimate (transactivation domain function in HSF1 fusion, heat-shock survival) (a.u. (slope of normalised read count over time)); higher = stronger growth at 37°C, i.e. more transactivation activity; conditions: library: random library

Substance	growth estimate
LICTLRIVYQCRKSGNDRSV	< -0.25
LFCAVAQ	< -0.25
IRFWDSAIEKNTTTVSWGRT	< -0.25
PGPWVR	< -0.25
FVRSPGGGGKSVISTCDGRH	< -0.25
RAFCAQGHGPPGWRLCCNLV	< -0.25
GSGF	-0.243
CILKKQQRPK	< -0.25
TSPAVDRCGLWCRSRHRTMG	< -0.25
SVLSMVRVAE	< -0.25
YDPG	< -0.25
SPPGSLEFQPCASRYRGGGP	< -0.25
PLLGKKTRTTTTYQDRYGRG	< -0.25
YENTRG	< -0.25
QLVRIYWPSRYKIA	< -0.25
QSDLSDGR	< -0.25
FPSEEKGV	-0.246
RGEGYVVTTPSGSGPWRGAL	< -0.25
ILKWMLGAR	< -0.25
VSRAASRASVLEVVDPTGRG	< -0.25
HTVFAGEDRGTVVDRETLYR	< -0.25
DFLWNAVRASGSI	-0.245
SKEVGHCSQLLGWVGHTFQS	< -0.25

Substance	growth estimate
WMVF	< -0.25
WAWMASVIYRSRAQHSGYCA	< -0.25
WCYRTRIH	< -0.25
SGSCPLERGRSYDLRDDSDG	< -0.25
RMQLGYRAIVEFGTGCTRPL	< -0.25
AKCLGASTIVDDPKVNDKLI	< -0.25
SAWLEDFGRCFTQSA	< -0.25
SIQDWVSTTAL	< -0.25
STIHSLVLINLLSTPGTA	< -0.25
QLYAPQSVYSNPNITWTTPK	< -0.25
VIREPMESSVRYGFSCCRET	< -0.25
FEPILCVLGTAFSSFQTAPT	< -0.25
LIMSRPGNPIQLCPTSKRK	< -0.25
WGTRDMCCQCPVLG	< -0.25
ESGKGLGS	< -0.25
SEGQLLSRSGITRV	< -0.25
VRSQICGERSKESTFQDSSC	< -0.25
RYHPEAPWMIGRTGTVRGAR	< -0.25
PSFPRRKKTNTP	< -0.25
SATGIVWQMKKEFHGANRGS	< -0.25
AGF	< -0.25
GSSAVEEPSGGASTRFSMAP	< -0.25
RSSGLLERCGSQVFGRVERI	< -0.25

3 entries from above, set out differently:
VIREPMESSVRYGFSCCRET
  growth estimate = < -0.25
FEPILCVLGTAFSSFQTAPT
  growth estimate = < -0.25
LIMSRPGNPIQLCPTSKRK
  growth estimate = < -0.25

More entries follow.

Substance	growth estimate
LGRLISLSQSVLRRVHL	< -0.25
HALPAKLRRHTLAKGFASWE	< -0.25
STNTLLIVLICGDFSM	< -0.25
SGGIGTNGALGLDA	< -0.25
RHPVPDGECTLSRGGDGTQG	< -0.25
AACGSSRAKTA	< -0.25
SGTGIRFASRVWSPYGSVVN	< -0.25
WQIPGTRGCVIAGC	< -0.25
AGSF	< -0.25
LASFLGPTACEES	< -0.25
VEKITGPTSQRFRTLVY	< -0.25
RLWATRLSIHGSTDGTLVVW	< -0.25
GMFGFWRDHSC	< -0.25
MISGRAFDMLSSAVRDGPVY	< -0.25
SSPPHTC	< -0.25
DLSHAKPL	< -0.25
GPEVFGRRLKATSIRRKLSG	< -0.25
GLLVIRTARSKGA	< -0.25
VRRPVLCQP	< -0.25
CRLTSPQRGWYKATRTHP	< -0.25
RGMGPQFSFVA	< -0.25
ERTPPRS	< -0.25
VGSARAGGPGCSVRATIA	< -0.25

Substance	growth estimate
VQVSN	< -0.25
RLQYGQ	< -0.25
TSVCPRFVCGLPRGVKLGCV	< -0.25
PHNVSQEPGCLQS	< -0.25
LLRGNPGNGETKVGAKVPGS	< -0.25
GLNITDC	< -0.25
RDDTKRRA	< -0.25
GISEDGKSRGESEASAGRGC	< -0.25
AKR	< -0.25
ARTAMDTLCLRQCVARPGLP	< -0.25
GVGNKQA	< -0.25
PFTHFID	< -0.25
ADLSAHC	< -0.25
KWQYNLCILTRAIYGAATEY	< -0.25
PVQVS	< -0.25
SYYGPWSIPGTPQEPPRPQS	< -0.25
WYSSRIAKLDSLY	< -0.25
WTVGGYTTQCRPLLDLTGPC	< -0.25
RFLGGTQ	< -0.25
QAVHYFSGRRQGSRGPYSGW	< -0.25
SPEFLPGGSGLRC	< -0.25
CRVWTGRGIYLR	< -0.25
ARFRLGS	< -0.25

Copied from the list:
ADLSAHC | growth estimate: < -0.25
PHNVSQEPGCLQS | growth estimate: < -0.25

(further entries)

Substance	growth estimate
IDSSDYHHRRAQTMVDLTRL	< -0.25
NPG	< -0.25
NLDTIRL	< -0.25
MVRMAHATSD	< -0.25
ERVEYVRHGSHYGGSQRPRP	< -0.25
RDEPDLNVIRKFFRMSLGLF	< -0.25
LGGSDMTYSRRFTINTRLGT	< -0.25
FNTLWSLRG	< -0.25
KSNLRGEWQDSK	< -0.25
CLPIIRRMSQLERVYPVSMA	< -0.25
RLCYSQVSALNIRFIRG	< -0.25
IEKRIPLAKSRTAISRF	< -0.25
HTDTSK	< -0.25
VEINKPERC	< -0.25
TEEGSLQCDGT	< -0.25
GGPTRFDLDVQWALARAPEL	-0.235
HSRI	< -0.25
LNLSRPRPALGSDGVITAWG	< -0.25
MGVAAIVTPSTVQLPPSHDT	< -0.25
QWVLNYWRQGTLLFGKSGQG	< -0.25
HIYRYHAHPPFTPHYANSEA	< -0.25
SCASGAALVLAGPAIYSWLG	< -0.25
SIQSGGGGGIGRNSTSGSGT	< -0.25

Substance	growth estimate
VSIASRPNRLRCTRQRPSPR	< -0.25
TGAWV	< -0.25
PQDLLPNKGEKMILHY	< -0.25
QSATVSTKSRFALGTLR	< -0.25
SCNDYPSLGSRRKFAHSDAP	< -0.25
SACNTSGGRLTALFGFLFVS	< -0.25
KADWVLMPNARGLVQVCPRW	< -0.25
MPGELERSACMLHTHWSPGA	< -0.25
YGNRRRSVHEQCVREMVCMP	< -0.25
LKVES	< -0.25
VFSTACLKDPRCTLQAEYPG	-0.245
LEDFTG	< -0.25
LTEQKQYRDVHSTGLKCKAG	< -0.25
TFLLGGPHGASRLPPGLTCI	< -0.25
CWLKRATELCGEFAFCPSEF	< -0.25
YRLPIHY	< -0.25
PSPVLKSITNAKYVLV	< -0.25
LSWSIRR	< -0.25
DESRPR	< -0.25
TKFLCFGSTKRYTYSTTIKA	-0.241
DFWAS	< -0.25
QTADIIAALMQS	< -0.25
PVFRTHLVR	< -0.25

Substance	growth estimate
TKCYRPSSSCSV	< -0.25
RIDYPRPDHKVATRAGEIPR	< -0.25
SDGSSTISTWTGAPLGPTQG	< -0.25
DAIVA	< -0.25
SYRKGG	< -0.25
SFRSKAP	< -0.25
DNHRTGYGIPIYQGIGQTG	-0.25
SLWGPSIGRAPSGRQGTPRL	< -0.25
LFRYSSYGTGVWRIIRPFFS	< -0.25
VVGGRLGRPHRCRGELASYL	< -0.25
WVAVPQRRLTTPVICR	< -0.25
PRMLLTPVRHVLCGGLHGSG	< -0.25
ENVMHGASSFDTAIQRLC	< -0.25
SGSDVYVEVSRGTRRALLTH	< -0.25
LNVTQ	< -0.25
RQLIVFGRSSRQEAKIRSPR	< -0.25
ESQAVCVGGVAVMISRRWND	0.0741
GRVNVSTCIAPYLNRPG	-0.246
EKEIPHSVHVANRA	< -0.25
RVKAG	< -0.25
VQQF	< -0.25

Pulled one by one from the list above (six):
Substance	growth estimate
VSRAASRASVLEVVDPTGRG	< -0.25
VQVSN	< -0.25
ADLSAHC	< -0.25
AGF	< -0.25
ESQAVCVGGVAVMISRRWND	0.0741
QLYAPQSVYSNPNITWTTPK	< -0.25
